Source: publication PMC1800861, “Characterization of an Oct1 orthologue in the channel catfish, Ictalurus punctatus: A negative regulator of immunoglobulin gene transcription?”
For at least one entry, the source does not settle the construct or the ends of the probe. For some assays here: Negatives hold for the conditions tested. For some assays here: At least one verdict rests on a figure or table, not on a statement of the authors. For some assays here: Protein sequences can lack the tags named with them. For some assays here: At least one result comes from cells or an extract, where the contact may be indirect.

What was measured:
[1] = tested on: Oct2 (endogenous); assay: competition with a labelled probe; conditions: scrambled competitor vs N3 probe, bands not abolished; 1x Promega binding buffer (from 5x, composition not given), 30 min preincubation at room temperature then 30 min with probe; 5% native PAGE at 4°C; 100x competitor; protein in an extract; label: none (cold competitor)
[2] = biological target: T1, Oct1 (endogenous) (UniProt O57602); assay: competition with a labelled probe; conditions: scrambled competitor vs N3 probe, bands not abolished; 1x Promega binding buffer (from 5x, composition not given), 30 min preincubation at room temperature then 30 min with probe; 5% native PAGE at 4°C; 100x competitor; protein in an extract; label: none (cold competitor)
T1 sequence (looked up, limits assumed): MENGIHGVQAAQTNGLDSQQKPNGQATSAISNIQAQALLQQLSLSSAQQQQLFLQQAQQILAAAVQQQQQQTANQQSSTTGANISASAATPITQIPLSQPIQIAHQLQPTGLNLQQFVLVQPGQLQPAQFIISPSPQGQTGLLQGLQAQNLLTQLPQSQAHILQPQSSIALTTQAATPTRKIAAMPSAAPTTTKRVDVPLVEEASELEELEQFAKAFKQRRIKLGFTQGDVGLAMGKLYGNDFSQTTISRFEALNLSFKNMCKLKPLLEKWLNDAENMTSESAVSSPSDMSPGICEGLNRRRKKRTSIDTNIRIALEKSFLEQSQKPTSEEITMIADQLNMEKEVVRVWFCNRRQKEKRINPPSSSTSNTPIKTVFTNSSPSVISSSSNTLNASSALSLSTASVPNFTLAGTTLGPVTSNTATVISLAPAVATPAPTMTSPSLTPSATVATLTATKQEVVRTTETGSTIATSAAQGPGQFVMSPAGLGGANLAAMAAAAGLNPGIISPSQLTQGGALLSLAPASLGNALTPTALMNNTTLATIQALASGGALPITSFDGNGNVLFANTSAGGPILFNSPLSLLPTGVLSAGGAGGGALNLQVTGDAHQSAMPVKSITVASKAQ

[3] = tested on: Oct2 (endogenous); assay: EMSA supershift; conditions: anti-Oct2 supershift; 1x Promega binding buffer (from 5x, composition not given), 30 min preincubation at room temperature then 30 min with probe; 5% native PAGE at 4°C; 100x competitor; protein in an extract; label: 32P-dATP Klenow fill-in
[4] = biological target: T1, Oct1 (endogenous); assay: EMSA supershift; conditions: anti-Oct1 supershift; 1x Promega binding buffer (from 5x, composition not given), 30 min preincubation at room temperature then 30 min with probe; 5% native PAGE at 4°C; 100x competitor; protein in an extract; label: 32P-dATP Klenow fill-in
[5] = biological target: T2, Oct2β (in vitro translated) (Ictalurus punctatus (channel catfish)) (UniProt O13007); assay: competition with a labelled probe; conditions: 100x unlabeled competitor vs N1 probe, results stated similar to Oct1; 1x Promega binding buffer (from 5x, composition not given), 30 min preincubation at room temperature then 30 min with probe; 5% native PAGE at 4°C; 100x competitor; protein translated in vitro; label: none (cold competitor)
T2 sequence (looked up, limits assumed): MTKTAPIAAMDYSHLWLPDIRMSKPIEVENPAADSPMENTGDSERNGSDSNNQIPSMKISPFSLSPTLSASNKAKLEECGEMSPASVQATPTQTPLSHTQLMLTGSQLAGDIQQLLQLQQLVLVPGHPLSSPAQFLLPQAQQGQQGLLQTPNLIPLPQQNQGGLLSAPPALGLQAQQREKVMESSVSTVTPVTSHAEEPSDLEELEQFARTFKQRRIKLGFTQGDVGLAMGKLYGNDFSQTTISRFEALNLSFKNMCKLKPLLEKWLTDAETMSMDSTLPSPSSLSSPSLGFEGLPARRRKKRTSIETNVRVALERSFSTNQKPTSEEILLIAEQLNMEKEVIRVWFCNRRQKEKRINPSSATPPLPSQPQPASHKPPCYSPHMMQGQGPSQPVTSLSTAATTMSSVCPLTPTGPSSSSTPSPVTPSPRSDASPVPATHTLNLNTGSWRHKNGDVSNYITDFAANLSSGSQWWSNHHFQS

Q: What does the source list for “CAATATGAATACAAAATATACCT / CATAGGTATATTTTGTATTCATA [scrambled consensus octamer (G-1249/G-1250)]”?
A: binding result [1]: no binding; binding result [2]: no binding

Q: Does “CAATATGAATATGCAAATTACCT / CATAGGTAATTTGCATATTCATA [consensus octamer (G-656/G-567)]” bind [3]?
A: binds

Q: Does “CAATATGAATATGCAAATTACCT / CATAGGTAATTTGCATATTCATA [consensus octamer (G-656/G-567)]” bind [4]?
A: binds

Q: Does “GCAAAACACTGCTATATGAAAGTCTAAT / CATTATTAGACTTTCATATAGCAGTGTT [scrambled Eμ3' first octamer (G-2132/G-2133)]” bind [5]?
A: no binding
